Measured values from publication PMC12663132, “Assessment of cytotoxicity of some synthetic compounds against breast carcinoma spheroids with subsequent analysis of pro-apoptotic and gene expression” (Scientific Reports, 2025).

Test system: MCF7 cell line
Test: Pro-apoptotic activity, M30 Cytodeath ELISA (CK18-Asp396)
Type: cell-based, human
Details: MCF7 monolayers, 24 h
Method: The pro-apoptotic activity is measured as fold increase of the spontaneous apoptosis occurred in the DMSO treated negative control ± standard deviation.
The cutoff was determined as fourfold increase in the apoptosis signal of the negative control.
The accumulation of CK18-Asp396 in treated MCF7 cell cultures was quantified using the M-30 Cytodeath® ELISA kit according to the manufacturer’s instructions. Briefly, the MCF7 cell line monolayers were exposed to the chemical compounds at a concentration of 50 µM. Following 24 h of incubation, the culture medium was supplemented with 0.1% NP40. Subsequently, aliquots of 25 µL from each well, containing CK18 released into the medium from attached and floating cells and cell fragments, were subjected to the ELISA assay. Cleaved CK18 levels were determined by measuring the absorbance at 450 nm[46].

Structure (SMILES)	OD 450 (50 µM)	OD 450 (cisplatin 40 µM)
COC(=O)c1cc(C=C(C#N)C#N)c(OC)cc1OC [H09, methyl 5-(2,2-dicyanovinyl)-2,4-dimethoxybenzoate]	0.2311	–
O=C(NCCc1c[nH]c2ccccc12)Nc1ccc(Cl)cc1 [D08, N-(4-chlorophenyl)-N'-[2-(1H-indol-3-yl)ethyl]urea]	0.1933	–
COc1ccc(OCCC(=O)NNC(=S)Nc2cc(Cl)ccc2Cl)cc1 [F06, N1-(2,5-dichlorophenyl)-2-[3-(4-methoxyphenoxy)propanoyl]hydrazine-1-carbothioamide]	0.5655	–
Cc1cccc(C)c1NC(=O)COC(=S)c1sc2ccccc2c1Cl [A07, 2-(2,6-dimethylanilino)-2-oxoethyl 3-chlorobenzo[b] thiophene-2-carbothioate]	0.3289	–
CCOC(=O)c1c(NS(=O)(=O)c2cccc3nsnc23)sc(C)c1C [F03, ethyl 2-[(2,1,3-benzothiadiazol-4-ylsulfonyl)amino]-4,5-dimethylthiophene-3-carboxylate]	0.439	–
N.N.[Cl][Pt][Cl] [cisplatin, reference compound]	–	0.5231
Nc1ccccc1SCC=CCSc1ccccc1N [C02, 2-({4-[(2-aminophenyl)thio]but-2-enyl}thio)aniline]	0.3635	–
